{"source": "patent US10828315B2", "about": "(Madrigal Pharmaceuticals, Inc., priority 2013, dated 2020)", "test": "Artificial membrane permeability assay (PAMPA)"}
{"smiles": "NS(=O)(=O)c1cc(C(=O)O)c(NCc2ccco2)cc1Cl", "note": "[Furosemide]", "values": [{"measurement": "Mass Retention", "setting": "incubation 5 h, first table", "result": 7.53, "unit": "%"}, {"measurement": "Mass Retention", "setting": "same protocol, second table", "result": 2.63, "unit": "%"}]}
